The list shows only some results of the screen, not a fair sample: it gathers tests that were run many times, whatever their T/C, doses with no T/C, and many T/C values between a quarter and a half above the control. Further doses and runs are listed elsewhere. T/C: endpoint of the treated group in % of that of the vehicle group. Some doses have a count of surviving animals in place of a T/C: the source holds a T/C of zero for them, seemingly a mark for toxic or unscored doses. Some survivor counts are full or nearly so, which does not show that the dose was tolerated: the source hardly ever lists a survival T/C far under the control, and the zero likely stands for such cases as well. Survivors were counted at the toxicity check, usually on the fifth day, unless a day is given; later deaths do not show. Schedules are NCI's codes, taken here to give the interval after Q, in days (D) or hours (H), and the number of doses after X. Where survival is the endpoint, this PubChem deposit counts one and a half times the control or more as active, and values a quarter to a half above the control carry no call in these data; other NCI protocols may use other cut-offs. Some doses were run more than once; the values are given in rising order. Some T/C values carry the count of animals alive at the toxicity check (mostly the fifth day); where none is given, no animal had died by that day. Starred links: 1 amine or outer side, 2 acyl side, 3 side chain; linkers in the order of their positions; H or OH if unused. Positions of bridges follow the written chain, without caps; N, C: chain ends. Non-standard residues stand in square brackets, D forms with d. Residues, ends and D or L forms follow the SMILES beside them. ξ: configuration not given here. *: point of attachment. ξOrn(4,5-diOH) = O=C(C(CC(O)C(O)N[*:3])N[*:1])[*:2]; ξhTyr(βξ-OH,γξ-OH) = NC(C(=O)O)C(O)C(O)c1ccc(O)cc1; ξPro(3ξ-OH,4ξ-Me) = CC1CNC(C(=O)O)C1O; X4 = CCCCC/C=C/C/C=C\CCCCCCCC(=O)*; Hyp = O=C(O)[CH]1C[CH](O)CN1
System: BDF1 mice, P388 leukemia ip, median survival T/C
Assay: NCI In Vivo Anticancer Drug Screen. Data for tumor model P388 Leukemia (intraperitoneal) in B6D2F1 (BDF1) mice
Conditions: T/C endpoint: median survival time, higher T/C = longer survival
Method in brief: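 Transplantable tumour in mice; compound vs vehicle dosing; survival scored; ratio of treated to control reported.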

[1] = dose: 100.0 mg/kg/injection, schedule: Q04DX002 (ip), vehicle: saline with Tween-80
[2] = dose: 12.5 mg/kg/injection, schedule: Q04DX003 (ip), vehicle: Klucel (hydroxypropylcellulose) (HPC)

Structure (SMILES): COC(=O)/C(N=Nc1cccc(C)c1)=C(\C)O
- survivor count (dose: 200.0 mg/kg/injection, schedule: Q01DX009 (ip), vehicle: saline with Tween-80): 6 of 6

Structure (SMILES): Cn1c(C(Cl)Cl)nc2ccccc2c1=O
- survivor count (dose: 255.0 mg/kg/injection, schedule: Q01DX009 (ip), vehicle: Klucel (hydroxypropylcellulose) (HPC)): 3 of 6
- survivor count (dose: 385.0 mg/kg/injection, schedule: Q01DX009 (ip), vehicle: Klucel (hydroxypropylcellulose) (HPC)): 4 of 6

Structure (SMILES): O=NN(CCF)C(=O)NC1CCCCC1
- T/C (dose: 8.0 mg/kg/injection, schedule: Q04DX003 (ip), vehicle: saline with Tween-80): 135 % of control

Structure (SMILES): CN1CCC2=C(C1)C(N1CCCC1)CS(=O)(=O)O2 (stereo unspecified)
- survivor count [1]: 6 of 6
- survivor count (dose: 200.0 mg/kg/injection, schedule: Q04DX002 (ip), vehicle: saline with Tween-80): 0 of 6
- survivor count (dose: 400.0 mg/kg/injection, schedule: Q04DX002 (ip), vehicle: saline with Tween-80): 0 of 6

Structure (SMILES): CN1C(=O)c2ccccc2CC12c1ccccc1C(=O)N2C (stereo unspecified)
- survivor count (dose: 100.0 mg/kg/injection, schedule: Q01DX005 (ip), vehicle: saline with Tween-80): 5 of 5

Structure (SMILES): O=C(CS)CS
- survivor count (dose: 100.0 mg/kg/injection, schedule: Q01DX009 (ip), vehicle: water): 0 of 6

Structure (SMILES): CCCCC/C=C/C/C=C\CCCCCCCC(=O)NC1CC(O)C(O)NC(=O)C2C(O)C(C)CN2C(=O)C(C(C)O)NC(=O)C(C(O)C(O)c2ccc(O)cc2)NC(=O)C2CC(O)CN2C(=O)C(C(C)O)NC1=O (stereo not drawn) (X4-[ξOrn(4,5-diOH)]T[Hyp][ξhTyr(βξ-OH,γξ-OH)]T[ξPro(3ξ-OH,4ξ-Me)]; lactam 1-C; configuration not given here)
- survivor count (dose: 8.0 mg/kg/injection, schedule: Q01DX009 (ip), vehicle: lactate): 3 of 6

Structure (SMILES): CN(C)CCC=C1c2ccccc2-c2ccccc21
- survivor count (dose: 100.0 mg/kg/injection, schedule: Q01DX009 (ip), vehicle: saline): 6 of 6
- survivor count (dose: 200.0 mg/kg/injection, schedule: Q01DX009 (ip), vehicle: saline): 0 of 6

Structure (SMILES): COc1cccc2c1C(=O)c1c(O)c3c(c(O)c1C2=O)C[C@@](O)(/C=N\O)C[C@@H]3OC1CC(N)C(O)C(C)O1 (stereo partly specified)
- T/C (dose: 12.5 mg/kg/injection, schedule: Q04DX003 (ip), vehicle: water): 128 % of control
- T/C (dose: 25.0 mg/kg/injection, schedule: Q04DX003 (ip), vehicle: water): 138 % of control
- T/C (dose: 50.0 mg/kg/injection, schedule: Q04DX003 (ip), vehicle: water): 147 % of control
- T/C (dose: 100.0 mg/kg/injection, schedule: Q04DX003 (ip), vehicle: water): 147 % of control [2 of 3 alive]
- survivor count (dose: 200.0 mg/kg/injection, schedule: Q04DX003 (ip), vehicle: water): 1 of 3

Structure (SMILES): C=C1[C@@H](O)[C@]2(O)OC[C@@]34[C@H]1[C@@H](OC(=O)C(C)CC)C(=O)O[C@@H]3C[C@H]1C(C)=CC(=O)[C@@H](O)[C@]1(C)[C@@H]24 (stereo partly specified)
- T/C (dose: 0.06 mg/kg/injection, schedule: Q01DX009 (ip), vehicle: saline with Tween-80): 125 % of control [5 of 6 alive]
- T/C (dose: 0.12 mg/kg/injection, schedule: Q01DX009 (ip), vehicle: saline with Tween-80): 141 % of control
- T/C (dose: 0.25 mg/kg/injection, schedule: Q01DX009 (ip), vehicle: saline with Tween-80): 148 % of control [5 of 6 alive]
- T/C (dose: 0.5 mg/kg/injection, schedule: Q01DX009 (ip), vehicle: saline): 134 % of control
- T/C (dose: 2.0 mg/kg/injection, schedule: Q01DX009 (ip), vehicle: saline): 145 % of control
- survivor count (dose: 4.0 mg/kg/injection, schedule: Q01DX009 (ip), vehicle: saline with Tween-80): 3 of 6
- T/C (dose: 8.0 mg/kg/injection, schedule: Q01DX009 (ip), vehicle: saline with Tween-80): 148 % of control [4 of 6 alive]

Structure (SMILES): CCOc1nc(SCC)ncc1C
- survivor count (dose: 400.0 mg/kg/injection, schedule: Q01DX009 (ip), vehicle: water): 0 of 6

Structure (SMILES): CN1C=c2c3c(ccc2=C2C=CC4C=C5OCOC5=CC4=C21)OCO3 (stereo unspecified)
- survivor count (dose: 40.0 mg/kg/injection, schedule: Q01DX010 (ip), vehicle: saline): 4 of 6

Structure (SMILES): O=C(O)CCI
- survivor count (dose: 200.0 mg/kg/injection, schedule: Q04DX003 (ip), vehicle: saline with Tween-80): 6 of 6
- survivor count (dose: 400.0 mg/kg/injection, schedule: Q01DX001 (ip), vehicle: saline): 2 of 6
- survivor count (dose: 400.0 mg/kg/injection, schedule: Q04DX003 (ip), vehicle: saline with Tween-80): 5 of 6

Structure (SMILES): CCCCCCCCCCCCCCCCCCCC
- survivor count (dose: 25.0 mg/kg/injection, schedule: Q01DX009 (ip), vehicle: other): 5 of 6

Structure (SMILES): CC1([CH2][Hg][Cl])Cc2ccccc2O1 (stereo unspecified)
- survivor count (dose: 6.25 mg/kg/injection, schedule: Q04DX003 (ip), vehicle: saline with Tween-80): 1 of 6

Structure (SMILES): C[C@@H]1C[C@@]2(C)[C@@H](CC[C@@H]3[C@@H]2CC[C@]2(C)OC(=O)CC[C@@H]32)CC1=O
- T/C (dose: 400.0 mg/kg/injection, schedule: Q04DX003 (ip), vehicle: alcohol): 125 % of control
- survivor count (dose: 400.0 mg/kg/injection, schedule: Q04DX003 (ip), vehicle: saline): 6 of 6

Structure (SMILES): CC(=O)OC1CC(OC2C(O)CC(OC3C(O)CC(OC4CCC5(C)C(CCC6C5CCC5(C)C(C7=CC(=O)OC7)CCC65O)C4)OC3C)OC2C)OC(C)C1OC1OC(CO)C(O)C(O)C1O (stereo unspecified)
- survivor count (dose: 10.0 mg/kg/injection, schedule: Q01DX010 (ip), vehicle: carboxymethylcellulose (CMC)): 4 of 6
- survivor count (dose: 20.0 mg/kg/injection, schedule: Q01DX010 (ip), vehicle: carboxymethylcellulose (CMC)): 2 of 6

Structure (SMILES): CN1CCN(c2ccc([N+](=O)[O-])c3no[n+]([O-])c23)CC1
- T/C (dose: 5.0 mg/kg/injection, schedule: Q01DX009 (ip), vehicle: saline with Tween-80): 149 % of control [6 of 7 alive]

Structure (SMILES): O=S1(=O)C=CCCC=C1
- survivor count (dose: 200.0 mg/kg/injection, schedule: Q01DX009 (ip), vehicle: Klucel (hydroxypropylcellulose) (HPC)): 0 of 6

Structure (SMILES): O=C(O)C1C(C(=O)O)C2(Cl)C(Cl)=C(Cl)C1(Cl)C2(Cl)Cl.[Cu+2] (stereo unspecified)
- survivor count (dose: 50.0 mg/kg/injection, schedule: Q01DX009 (ip), vehicle: saline sonified): 0 of 6

Structure (SMILES): CCCCn1c(Cl)c(/C=N\Nc2ccccc2[N+](=O)[O-])c2ccccc21
- survivor count (dose: 100.0 mg/kg/injection, schedule: Q01DX001 (ip), vehicle: Klucel (hydroxypropylcellulose) (HPC)): 6 of 6
- survivor count (dose: 400.0 mg/kg/injection, schedule: Q01DX001 (ip), vehicle: Klucel (hydroxypropylcellulose) (HPC)): 6 of 6

Structure (SMILES): C#CC[As+](c1ccccc1)(c1ccccc1)c1ccccc1
- survivor count (dose: 6.25 mg/kg/injection, schedule: Q01DX009 (ip), vehicle: Klucel (hydroxypropylcellulose) (HPC)): 5 of 5
- T/C (dose: 6.25 mg/kg/injection, schedule: Q04DX003 (ip), vehicle: Klucel (hydroxypropylcellulose) (HPC)): 127 and 130 % of control
- T/C (dose: 8.0 mg/kg/injection, schedule: Q04DX003 (ip), vehicle: Klucel (hydroxypropylcellulose) (HPC)): 126 and 130 % of control
- survivor count (dose: 12.5 mg/kg/injection, schedule: Q01DX009 (ip), vehicle: Klucel (hydroxypropylcellulose) (HPC)): 5 of 6
- T/C [2]: 127 % of control
- survivor count [2]: 5 of 6
- survivor count (dose: 18.0 mg/kg/injection, schedule: Q04DX003 (ip), vehicle: Klucel (hydroxypropylcellulose) (HPC)): 6 of 6
- survivor count (dose: 25.0 mg/kg/injection, schedule: Q01DX009 (ip), vehicle: Klucel (hydroxypropylcellulose) (HPC)): 3 of 6
- survivor count (dose: 25.0 mg/kg/injection, schedule: Q04DX003 (ip), vehicle: Klucel (hydroxypropylcellulose) (HPC)): 4 of 6

Structure (SMILES): Cc1c2ccc3ccccc3c2c[n+]2ccccc12
- survivor count (dose: 20.0 mg/kg/injection, schedule: Q01DX009 (ip), vehicle: saline with Tween-80): 4 of 6

Structure (SMILES): CCC1=CC(C(O)CC(C)C)C(C)(Cc2ccc(CC)cn2)NC1c1ccccc1 (stereo unspecified)
- survivor count [1]: 3 of 6

Structure (SMILES): c1ccc(OP2OCCO2)cc1
- survivor count (dose: 50.0 mg/kg/injection, schedule: Q04DX003 (ip), vehicle: saline): 5 of 6

Structure (SMILES): Nc1cc(N)cc(Cc2ccccc2)c1
- survivor count (dose: 400.0 mg/kg/injection, schedule: Q01DX009 (ip), vehicle: Klucel (hydroxypropylcellulose) (HPC)): 1 of 6

Structure (SMILES): Oc1c(Cl)cc(Cl)cc1C1Nc2ccccc2-n2cccc21 (stereo unspecified)
- survivor count (dose: 50.0 mg/kg/injection, schedule: Q01DX009 (ip), vehicle: saline with Tween-80): 6 of 6
- survivor count (dose: 100.0 mg/kg/injection, schedule: Q01DX009 (ip), vehicle: saline with Tween-80): 6 of 6

Structure (SMILES): CCCN(CCC)CCCOC(=O)c1ccc(N)cc1
- survivor count (dose: 200.0 mg/kg/injection, schedule: Q04DX003 (ip), vehicle: saline): 0 of 6

— PubChem BioAssay AID328 (DTP/NCI, 2004)
